Reference: the M2OR odorant receptor database
The entries are a selection whose mix differs from that of the whole data set. Calls are pooled over several reports, among them a noisy single-well screen. Some of the results follow.

system: T1, OR1L1; settings: stereoisomer not certain
T1 sequence (whole entry): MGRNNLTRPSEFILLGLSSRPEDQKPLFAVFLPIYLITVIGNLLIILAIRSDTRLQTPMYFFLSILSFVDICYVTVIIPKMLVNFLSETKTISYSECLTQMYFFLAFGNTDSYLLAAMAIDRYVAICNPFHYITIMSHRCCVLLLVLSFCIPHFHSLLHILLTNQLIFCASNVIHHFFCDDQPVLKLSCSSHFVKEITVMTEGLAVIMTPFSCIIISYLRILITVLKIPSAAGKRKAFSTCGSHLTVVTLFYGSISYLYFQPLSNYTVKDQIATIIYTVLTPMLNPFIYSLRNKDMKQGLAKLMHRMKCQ
Procedure, shortened: (§1)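 Values were gathered from published papers (main text and supplementary material), with extra details requested from the original authors when needed, and checked for typos and inconsistencies. Each receptor–molecule pair is called responsive (active) if the original authors judged the measured signal statistically different from baseline, and non-responsive (inactive) otherwise. Assay methods varied by source, often transient mammalian cell-line luciferase assays. Recorded details include cell line, G-protein, co-transfected protein and tags.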

| Structure (SMILES) | odorant receptor agonist call |
| --- | --- |
| COc1cc(C=O)ccc1O | inactive |
| CC1=CCC(C(C)(C)O)CC1 (stereo not drawn) | inactive |
| CC(C)CC(=O)O | inactive |
| O=C1CCCCCCCCCCCCCCO1 | inactive |
| CC1CCC(C(C)C)C(O)C1 (stereo not drawn) | inactive |
| COC(=O)c1ccccc1 | inactive |
| C=CCc1ccc(OC(C)=O)c(OC)c1 | inactive |
| C=CCc1ccc(OC)c(OC)c1 | inactive |
| CC=Cc1ccc(O)c(OC)c1 | inactive |
| COc1ccccc1O | inactive |
| CC1=NC(C)SC1C (stereo not drawn) | inactive |
| C=CC(C)(O)CCC=C(C)C (stereo not drawn) | inactive |
| CC(=O)c1ccccc1 | inactive |
| CC(C)CCC(=O)O | inactive |
| CCCCCOC(C)=O | inactive |
| CC(C)(C)c1ccc(CCC=O)cc1 | inactive |
| CC(C)=CCCC(C)=CC=O | inactive |
| CCCC(=O)O | inactive |
| O=C1CCCCC1 | inactive |
| CCCCCCCOC(C)=O | inactive |
| CC(=O)OC1CC2CCC1(C)C2(C)C (stereo not drawn) | inactive |
| CCCCCC(C)=O | inactive |
| CC1COCc2cc3c(cc21)C(C)(C)C(C)C3(C)C (stereo not drawn) | active |
| CCCCCCCC=CC=O | inactive |
| CC12CCC(CC1)C(C)(C)O2 | inactive |

molecular target: T2, OR1L3 (Homo sapiens) (UniProt Q8NH93); settings: stereoisomer not certain
T2 sequence (whole entry): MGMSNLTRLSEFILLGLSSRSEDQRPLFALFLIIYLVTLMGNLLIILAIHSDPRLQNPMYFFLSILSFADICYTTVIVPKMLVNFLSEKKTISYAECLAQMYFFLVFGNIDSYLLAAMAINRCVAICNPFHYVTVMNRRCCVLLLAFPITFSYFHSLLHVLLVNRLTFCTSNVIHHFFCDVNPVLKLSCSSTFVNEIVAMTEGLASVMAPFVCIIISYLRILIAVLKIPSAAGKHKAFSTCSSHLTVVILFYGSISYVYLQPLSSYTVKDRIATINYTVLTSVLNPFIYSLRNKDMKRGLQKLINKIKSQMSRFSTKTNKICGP
Procedure, shortened: as §1

| Structure (SMILES) | odorant receptor agonist call |
| --- | --- |
| CC1=CCC(C(C)(C)O)CC1 (stereo not drawn) | inactive |
| CC(C)CC(=O)O | inactive |
| O=C1CCCCCCCCCCCCCCO1 | inactive |
| CC1CCC(C(C)C)C(O)C1 (stereo not drawn) | inactive |
| COC(=O)c1ccccc1 | inactive |
| C=CCc1ccc(OC(C)=O)c(OC)c1 | inactive |
| C=CCc1ccc(OC)c(OC)c1 | inactive |
| CC=Cc1ccc(O)c(OC)c1 | inactive |
| COc1ccccc1O | inactive |
| CC1=NC(C)SC1C (stereo not drawn) | inactive |
| C=CC(C)(O)CCC=C(C)C (stereo not drawn) | inactive |
| CC(=O)c1ccccc1 | inactive |
| CC(C)CCC(=O)O | inactive |
| CCCCCOC(C)=O | active |
| CC(C)(C)c1ccc(CCC=O)cc1 | inactive |
| CC(C)=CCCC(C)=CC=O | inactive |
| CCCC(=O)O | inactive |
| O=C1CCCCC1 | active |
| CCCCCCCOC(C)=O | inactive |
| CC(=O)OC1CC2CCC1(C)C2(C)C (stereo not drawn) | inactive |
| CCCCCC(C)=O | inactive |
| CC1COCc2cc3c(cc21)C(C)(C)C(C)C3(C)C (stereo not drawn) | active |
| CCCCCCCC=CC=O | inactive |
| CC12CCC(CC1)C(C)(C)O2 | inactive |

system: T3, OR1L4; settings: stereoisomer not certain
T3 sequence (whole entry): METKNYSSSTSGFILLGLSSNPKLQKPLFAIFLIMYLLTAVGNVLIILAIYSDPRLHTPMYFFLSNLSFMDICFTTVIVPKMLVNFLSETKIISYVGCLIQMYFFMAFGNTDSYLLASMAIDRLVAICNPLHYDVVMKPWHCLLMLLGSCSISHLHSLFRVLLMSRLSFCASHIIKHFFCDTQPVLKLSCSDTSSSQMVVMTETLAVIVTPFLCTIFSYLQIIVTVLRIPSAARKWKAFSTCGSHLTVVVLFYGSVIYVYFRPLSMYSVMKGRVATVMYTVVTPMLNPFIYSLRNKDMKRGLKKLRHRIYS
Procedure, shortened: as §1

| Structure (SMILES) | odorant receptor agonist call |
| --- | --- |
| COc1cc(C=O)ccc1O | inactive |
| CC1=CCC(C(C)(C)O)CC1 (stereo not drawn) | inactive |
| CC(C)CC(=O)O | inactive |
| O=C1CCCCCCCCCCCCCCO1 | inactive |
| CC1CCC(C(C)C)C(O)C1 (stereo not drawn) | inactive |
| COC(=O)c1ccccc1 | inactive |
| C=CCc1ccc(OC(C)=O)c(OC)c1 | inactive |
| C=CCc1ccc(OC)c(OC)c1 | inactive |
| CC=Cc1ccc(O)c(OC)c1 | inactive |
| COc1ccccc1O | inactive |
| CC1=NC(C)SC1C (stereo not drawn) | inactive |
| C=CC(C)(O)CCC=C(C)C (stereo not drawn) | inactive |
| CC(=O)c1ccccc1 | inactive |
| CC(C)CCC(=O)O | inactive |
| CCCCCOC(C)=O | active |
| CC(C)(C)c1ccc(CCC=O)cc1 | inactive |
| CC(C)=CCCC(C)=CC=O | inactive |
| CCCC(=O)O | inactive |
| O=C1CCCCC1 | active |
| CCCCCCCOC(C)=O | inactive |
| CC(=O)OC1CC2CCC1(C)C2(C)C (stereo not drawn) | inactive |
| CCCCCC(C)=O | inactive |
| CC1COCc2cc3c(cc21)C(C)(C)C(C)C3(C)C (stereo not drawn) | active |
| CCCCCCCC=CC=O | inactive |
| CC12CCC(CC1)C(C)(C)O2 | inactive |

system: T4, OR1L6; settings: stereoisomer not certain
T4 sequence (whole entry): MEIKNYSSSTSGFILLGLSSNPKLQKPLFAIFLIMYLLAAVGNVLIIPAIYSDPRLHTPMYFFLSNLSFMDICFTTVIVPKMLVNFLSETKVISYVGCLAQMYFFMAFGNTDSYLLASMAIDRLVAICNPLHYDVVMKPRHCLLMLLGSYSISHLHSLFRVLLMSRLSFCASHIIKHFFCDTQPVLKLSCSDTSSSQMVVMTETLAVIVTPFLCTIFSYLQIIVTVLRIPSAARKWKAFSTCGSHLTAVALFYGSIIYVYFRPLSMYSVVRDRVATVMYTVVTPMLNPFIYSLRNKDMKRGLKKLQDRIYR
Procedure, shortened: as §1

| Structure (SMILES) | odorant receptor agonist call |
| --- | --- |
| COc1cc(C=O)ccc1O | inactive |
| CC1=CCC(C(C)(C)O)CC1 (stereo not drawn) | inactive |
| CC(C)CC(=O)O | inactive |
| O=C1CCCCCCCCCCCCCCO1 | inactive |
| CC1CCC(C(C)C)C(O)C1 (stereo not drawn) | active |
| C=CCc1ccc(OC(C)=O)c(OC)c1 | inactive |
| C=CCc1ccc(OC)c(OC)c1 | inactive |
| CC=Cc1ccc(O)c(OC)c1 | inactive |
| COc1ccccc1O | inactive |
| C=CC(C)(O)CCC=C(C)C (stereo not drawn) | inactive |
| CC(C)CCC(=O)O | inactive |
| CC(C)(C)c1ccc(CCC=O)cc1 | inactive |
| CC(C)=CCCC(C)=CC=O | inactive |
| CCCC(=O)O | inactive |
| CCCCCCCOC(C)=O | inactive |
| CC(=O)OC1CC2CCC1(C)C2(C)C (stereo not drawn) | inactive |
| CC1COCc2cc3c(cc21)C(C)(C)C(C)C3(C)C (stereo not drawn) | active |
| CCCCCCCC=CC=O | inactive |
| CC12CCC(CC1)C(C)(C)O2 | inactive |

molecular target: T5, OR1L8 (Homo sapiens) (UniProt Q8NGR8); settings: stereoisomer not certain
T5 sequence (whole entry): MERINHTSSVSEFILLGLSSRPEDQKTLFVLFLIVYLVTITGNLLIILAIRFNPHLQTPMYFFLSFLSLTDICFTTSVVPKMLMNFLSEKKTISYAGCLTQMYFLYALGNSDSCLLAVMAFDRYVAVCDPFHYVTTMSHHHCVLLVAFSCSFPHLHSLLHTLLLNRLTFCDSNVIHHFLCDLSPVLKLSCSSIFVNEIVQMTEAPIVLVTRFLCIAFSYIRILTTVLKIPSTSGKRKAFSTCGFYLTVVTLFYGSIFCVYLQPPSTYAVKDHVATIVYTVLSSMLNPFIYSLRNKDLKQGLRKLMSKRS
Procedure, shortened: as §1

| Structure (SMILES) | odorant receptor agonist call |
| --- | --- |
| COc1cc(C=O)ccc1O | inactive |
| CC1=CCC(C(C)(C)O)CC1 (stereo not drawn) | inactive |
| CC(C)CC(=O)O | inactive |
| O=C1CCCCCCCCCCCCCCO1 | inactive |
| CC1CCC(C(C)C)C(O)C1 (stereo not drawn) | inactive |
| COC(=O)c1ccccc1 | inactive |
| C=CCc1ccc(OC(C)=O)c(OC)c1 | inactive |
| C=CCc1ccc(OC)c(OC)c1 | inactive |
| CC=Cc1ccc(O)c(OC)c1 | inactive |
| COc1ccccc1O | inactive |
| CC1=NC(C)SC1C (stereo not drawn) | inactive |
| C=CC(C)(O)CCC=C(C)C (stereo not drawn) | inactive |
| CC(=O)c1ccccc1 | inactive |
| CC(C)CCC(=O)O | inactive |
| CCCCCOC(C)=O | active |
| CC(C)(C)c1ccc(CCC=O)cc1 | inactive |
| CC(C)=CCCC(C)=CC=O | inactive |
| CCCC(=O)O | inactive |
| O=C1CCCCC1 | inactive |
| CCCCCCCOC(C)=O | inactive |
| CC(=O)OC1CC2CCC1(C)C2(C)C (stereo not drawn) | inactive |
| CCCCCC(C)=O | inactive |
| CC1COCc2cc3c(cc21)C(C)(C)C(C)C3(C)C (stereo not drawn) | inactive |
| CCCCCCCC=CC=O | inactive |
| CC12CCC(CC1)C(C)(C)O2 | inactive |
